Measurements reported in article PMC9799981.
No constants are given. Whether binding was seen depends on the method and setting. In cells and extracts the contact can be indirect. Some binding calls cover weakened binding; strength is not graded here.

By UniProt entry, the sequences of proteins in these tests, tags left out.
UniProt P09405: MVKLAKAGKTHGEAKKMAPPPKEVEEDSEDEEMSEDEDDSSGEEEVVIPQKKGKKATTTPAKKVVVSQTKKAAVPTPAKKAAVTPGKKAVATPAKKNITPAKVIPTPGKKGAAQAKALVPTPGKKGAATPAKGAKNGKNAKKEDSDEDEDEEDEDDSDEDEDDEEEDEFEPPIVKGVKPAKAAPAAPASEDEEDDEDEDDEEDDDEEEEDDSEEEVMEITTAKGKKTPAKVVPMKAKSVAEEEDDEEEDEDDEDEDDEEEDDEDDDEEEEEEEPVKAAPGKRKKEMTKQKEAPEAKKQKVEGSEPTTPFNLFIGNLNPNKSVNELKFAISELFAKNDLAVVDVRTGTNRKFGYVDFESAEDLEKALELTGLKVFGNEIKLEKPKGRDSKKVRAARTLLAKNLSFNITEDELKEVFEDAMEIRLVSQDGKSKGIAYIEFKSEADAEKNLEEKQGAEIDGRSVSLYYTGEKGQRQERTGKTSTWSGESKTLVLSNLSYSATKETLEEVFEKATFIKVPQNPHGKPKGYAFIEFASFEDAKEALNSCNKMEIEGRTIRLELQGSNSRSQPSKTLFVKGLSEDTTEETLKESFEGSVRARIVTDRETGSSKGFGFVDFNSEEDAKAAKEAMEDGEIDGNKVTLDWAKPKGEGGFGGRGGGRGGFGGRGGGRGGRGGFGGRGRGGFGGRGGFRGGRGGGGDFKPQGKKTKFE

Target: nucleolin (mouse (endogenous in HL-1)) (UniProt P09405)
Assay: co-IP; immunoprecipitation from HL-1 cell nuclear extracts with anti-nucleolin antibody (IgG as negative control, anti-p54^nrb as positive); capillary Simple Western (Jess) with anti-p54^nrb antibody

B1: p54^nrb (endogenous mouse Nono) (protein, UniProt Q99K48 1-473)
chain: MQSNKAFNLEKQNHTPRKHHQHHHQQHHQQQQQQQQQQPPPPIPANGQQASSQNEGLTIDLKNFRKPGEKTFTQRSRLFVGNLPPDITEEEMRKLFEKYGKAGEVFIHKDKGFGFIRLETRTLAEIAKVELDNMPLRGKQLRVRFACHSASLTVRNLPQYVSNELLEEAFSVFGQVERAVVIVDDRGRPSGKGIVEFSGKPAARKALDRCSEGSFLLTTFPRPVTVEPMDQLDDEEGLPEKLVIKNQQFHKEREQPPRFAQPGSFEYEYAMRWKALIEMEKQQQDQVDRNIKEAREKLEMEMEAARHEHQVMLMRQDLMRRQEELRRMEELHNQEVQKRKQLELRQEEERRRREEEMRRQQEEMMRRQQEGFKGTFPDAREQEIRMGQMAMGGAMGINNRGAMPPAPVPPGTPAPPGPATMMPDGTLGLTPPTTERFGQAATMEGIGAIGGTPPAFNRPAPGAEFAPNKRRRY
- binding: binds
